# Laboratory results from the supplement of paper PMC4604168 (melanoma cell lines).
# The list shows a part of the results. Repeats are few or missing, and single values can be far off.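 Imaging used 1,536-well plates; nuclei positive for cleaved PARP by antibody were divided by total DNA-stained nuclei to yield the apoptosis fraction. Doses for screening kept most cells viable, and cell lines differ markedly in resting and induced cleaved-PARP levels.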
# System: COLO792
# Assay: cleaved PARP positive nuclei fraction relative to DMSO control; melanoma cells; higher = more apoptosis
# Conditions: library dose: low library concentration; 72 h
row,SMILES,cleaved PARP positive nuclei fraction [%]
1,"O=C(Nc1cccc(Cl)c1)Nc1ncc(CCNc2ncnc3ccsc23)s1 + COc1cc(N2CCC(N3CCN(C)CC3)CC2)ccc1Nc1ncc(Cl)c(Nc2ccccc2S(=O)(=O)C(C)C)n1 [NVP-TAE684] (first compound 0.0008 µM, partner dose 0.08 µM)",87.3
2,"C[C@]1(c2nc3c(C(N)=O)cccc3[nH]2)CCCN1 [Veliparib] + O=S(=O)(c1ccccc1)N(CC(F)(F)F)c1ccc(C(O)(C(F)(F)F)C(F)(F)F)cc1 [T0901317] (first compound 1.4 µM, partner dose 1.4 µM)",100
3,"Cc1nc(Nc2ncc(C(=O)Nc3c(C)cccc3Cl)s2)cc(N2CCN(CCO)CC2)n1 [dasatanib] + CCc1ccc(CCOc2ccc(CC3SC(=O)NC3=O)cc2)nc1 [pioglitazone] (first compound 0.004 µM, partner dose 2 µM)",187
4,"CC1(C)NC(=O)N(c2ccc([N+](=O)[O-])c(C(F)(F)F)c2)C1=O [nilutamide] + O=c1cc(-c2cccc3c2Sc2ccccc2S3)oc(N2CCOCC2)c1 [KU55933] (first compound 1 µM, partner dose 1 µM)",94.8
5,"COc1cc(Nc2ncc(F)c(Nc3ccc4c(n3)NC(=O)C(C)(C)O4)n2)cc(OC)c1OC [Tamatinib] + Oc1nc(-c2ccc(C(F)(F)F)cc2)nc2c1CSCC2 [XAV939] (first compound 0.4 µM, partner dose 2 µM)",159
6,"O=C(CCCCCCC(=O)Nc1ccccc1)NO [vorinostat] + O=C(O)C(=O)Nc1sc2c(c1C(=O)O)CCNC2 [TCS401] (first compound 0.08 µM, partner dose 1.66667 µM)",64

# System: COLO800
# Assay: as above
# Conditions: library dose: low library concentration; 72 h
row,SMILES,cleaved PARP positive nuclei fraction [%]
1,"O=C(CCCCCCC(=O)Nc1ccccc1)NO [vorinostat] + COc1ccc2c(c1)CCC1C2CCC2(C)C(NCCCCCCN3C(=O)C=CC3=O)CCC12 [U73122] (first compound 0.08 µM, partner dose 0.4 µM)",113
2,"Cn1nnc2c(C(N)=O)ncn2c1=O [temozolomide] + COc1ccc(COc2ccc(Cc3cnc(N)nc3N)cc2OC)cc1 [GW2580] (first compound 2 µM, partner dose 1 µM)",156
3,"OCCn1cc(-c2cnc3nnn(Cc4ccc5ncccc5c4)c3n2)cn1 + COc1ccc(-c2ccc3c(N4CCOCC4)nc(N4C[C@@H](C)O[C@@H](C)C4)nc3n2)cc1CO [KU0063794] (first compound 1 µM, partner dose 0.02 µM)",110
4,"Cc1ccc(NC(=O)c2cccc(N(C)C)c2)cc1NC(=O)c1ccc(O)cc1 + Cn1cc(/C=C2\C(=O)Nc3cccnc32)c2ccccc21 [GW441756] (first compound 2 µM, partner dose 0.4 µM)",71.4
5,"Cc1ccc(NC(=O)c2cccc(N(C)C)c2)cc1NC(=O)c1ccc(O)cc1 + CCCCCCCCCCCC1=C(O)C(=O)C=C(O)C1=O [Embelin] (first compound 2 µM, partner dose 1.2 µM)",26.9
6,"Cn1cncc1[C@@](N)(c1ccc(Cl)cc1)c1ccc2c(c1)c(-c1cccc(Cl)c1)cc(=O)n2C [tipifarnib] + Cc1cc([N+](=O)[O-])ccc1NS(=O)(=O)c1cc(Cl)ccc1Cl [FH535] (first compound 0.01 µM, partner dose 1 µM)",118
7,"Cn1c(Nc2ccc(C(F)(F)F)cc2)nc2cc(Oc3ccnc(-c4ncc(C(F)(F)F)[nH]4)c3)ccc21 + COc1ccc2c(c1)CCC1C2CCC2(C)C(NCCCCCCN3C(=O)C=CC3=O)CCC12 [U73122] (first compound 0.08 µM, partner dose 0.4 µM)",158
8,"Cn1cncc1[C@@](N)(c1ccc(Cl)cc1)c1ccc2c(c1)c(-c1cccc(Cl)c1)cc(=O)n2C [tipifarnib] + Oc1cc(-c2nc(-c3ccccc3)[nH]c2-c2ccncc2)ccc1Cl [L779450] (first compound 0.01 µM, partner dose 0.2 µM)",123
9,"OCCn1cc(-c2cnc3nnn(Cc4ccc5ncccc5c4)c3n2)cn1 + O=C(O)C(=O)Nc1sc2c(c1C(=O)O)CCNC2 [TCS401] (first compound 1 µM, partner dose 1.66667 µM)",84

# Quoted at random: two entries already listed.
row,SMILES,cleaved PARP positive nuclei fraction [%]
1,"O=C(CCCCCCC(=O)Nc1ccccc1)NO [vorinostat] + COc1ccc2c(c1)CCC1C2CCC2(C)C(NCCCCCCN3C(=O)C=CC3=O)CCC12 [U73122] (first compound 0.08 µM, partner dose 0.4 µM)",113
6,"Cn1cncc1[C@@](N)(c1ccc(Cl)cc1)c1ccc2c(c1)c(-c1cccc(Cl)c1)cc(=O)n2C [tipifarnib] + Cc1cc([N+](=O)[O-])ccc1NS(=O)(=O)c1cc(Cl)ccc1Cl [FH535] (first compound 0.01 µM, partner dose 1 µM)",118
